For at least one entry, the source does not settle the construct or the ends of the probe.

This data set concerns Z05-D DNA polymerase. The data set can be described thus: inhibition of the protein. The conditions noted are these: primer extension on M13, 20 nM Z05-D, 0-2000 nM aptamer, 2.5 mM MgCl2, values in figures only, purified recombinant protein, single-stranded DNA.

Turning to “CGATCATCTCAGAACATTCTTAGCGTTTTGTTCTTGTGTATGATCG [U0 (NTQ21-46A)]”, the “functional effect of the aptamer” value is recorded as “active”.
With “CGAUCAUCTCAGAACATTCTTAGCGTTTTGTTCTTGTGTAUGAUCG [U1]”, the “functional effect of the aptamer” value (dU replacing dT at positions shown as u (low dU content), inhibition reduced by UNG, variant of U0 (NTQ21-46A)) is given as “active”.
With “CGAUCAUCTCAGAACATTCTTAGCGTTTUGUUCUUGTGTAUGAUCG [U3]”, the “functional effect of the aptamer” value (dU replacing dT at positions shown as u (high dU content), inhibition drastically reduced by UNG, variant of U0 (NTQ21-46A)) is listed as “active”.
Regarding “CGATCATCTCAGAACATTCTTAGCGTTTUGUUCUUGTGTATGATCG [U2]”, where the note is “dU replacing dT at positions shown as u (medium dU content), inhibition reduced by UNG, variant of U0 (NTQ21-46A)”, the “functional effect of the aptamer” value was “active”.

Source of the values: patent US20150176059.
